# Where two headings read alike, the source gives them in different places. Screen size: about 3,300 compounds; about 95 (3%) showed an effect of 50% or more. This is one part of the list.
# System: HCoV-229E
# Parameters: species or system Huh-7; HTS, protection from HCoV-229E induced cell death, luminescent cell viability (CellCounting-Lite 2.0), inhibition rate
# Conditions: 24 h post infection, 1 h compound pre-incubation, 10 µM, inhibitor
Structure (SMILES),229E Inhibition rate [%],"229E Inhibition rate (229E Inhibition rate, 24 h) [%]"
COc1ccc2c(=O)c(-c3ccc(O)cc3)coc2c1 [Isoformononetin],30.1,–
NC[C@H]1O[C@H](O[C@H]2[C@H](O)[C@@H](O[C@H]3O[C@H](CO)[C@@H](O)[C@H](N)[C@H]3O)[C@H](N)C[C@@H]2N)[C@H](O)[C@@H](O)[C@@H]1O [Kanamycin (sulfate)],12.2,–
O=C(/C=C/c1ccc(O)c(O)c1)c1ccc(O)cc1O [Butein],44.9,–
C[C@]12C[C@H](O)[C@H]3[C@@H](CCC4=CC(=O)CC[C@@]43C)[C@@H]1CC[C@@H]2C(=O)CO [Corticosterone],8.7,–
CC(C)=CCc1c(-c2ccc(O)cc2O)oc2c([C@H]3C=C(C)C[C@@H](c4ccc(O)cc4O)[C@@H]3C(=O)c3ccc(O)cc3O)c(O)cc(O)c2c1=O [Kuwanon G],24.6,–
Oc1nc(O)c2nc(O)[nH]c2n1 [Uric acid],6.1,–
O=C(O)Cc1cc(I)c(Oc2cc(I)c(O)c(I)c2)c(I)c1 [Tetrac],10.4,–
c1cc2c(cc1[C@H]1OC[C@H]3[C@@H]1CO[C@@H]3c1ccc3c(c1)OCO3)OCO2 [Sesamin],15.4,–
"O=C(O)c1cc(=O)[nH]c(=O)[nH]1 [2,6-Dioxo-1,2,3,6-tetrahydropyrimidine-4-carboxylic acid hyd] [2,6-Dioxo-1,2,3,6-tetrahydropyrimidine-4-carboxylic acid hydrate]",–,18
COc1cc(C=O)ccc1O[C@@H]1O[C@H](CO)[C@@H](O)[C@H](O)[C@H]1O [Glucovanillin],19.8,–
C=C[C@@]1(C)CC(=O)[C@]2(O)[C@@]3(C)[C@@H](O)CCC(C)(C)[C@@H]3[C@H](O)[C@H](OC(C)=O)[C@@]2(C)O1 [Forskolin],5.3,–
COc1ccc(C(=O)O)cc1O [Isovanillic acid],0,–
CN1Cc2c(ccc3c2OCO3)-c2ccc3cc4c(cc3c21)OCO4 [Dihydrosanguinarine],21.9,–
CO[C@H]1[C@@H](O)[C@H](O[C@@H]2[C@@H](C)O[C@@H](O[C@H]3CC[C@@]4(C)[C@@H](CC[C@@]56O[C@@]57CC[C@@H](C(C)=O)[C@@]7(C)[C@H](OC(C)=O)[C@@H](OC(=O)c5ccccc5)[C@H]46)C3)C[C@H]2OC)O[C@H](C)[C@H]1O [Tenacissoside I],13.8,–
C=C1CC[C@@H]2[C@](C)(CO)[C@H](O)CC[C@@]2(C)[C@@H]1CCC1=CCOC1=O [14-Deoxyandrographolide],–,23.1
CC(CC(=O)C[C@@H](C)[C@H]1CC(=O)[C@@]2(C)C3=C(C(=O)C[C@]12C)[C@@]1(C)CC[C@H](O)C(C)(C)[C@@H]1C[C@@H]3O)C(=O)O (stereo partly shown) [Ganoderic acid B],7.7,–
CCCCCc1cc(=O)c2ccccc2n1C [1-Methyl-2-pentyl-4(1H)-quinolinone],6.2,–
CC(C)=CCC[C@](C)(O[C@@H]1O[C@H](CO)[C@@H](O)[C@H](O)[C@H]1O)[C@H]1CC[C@]2(C)[C@@H]1[C@H](O)C[C@@H]1[C@@]3(C)CC[C@H](O)C(C)(C)[C@@H]3[C@@H](O[C@@H]3O[C@H](CO)[C@@H](O)[C@H](O)[C@H]3O)C[C@]12C [Ginsenoside Rg1],48.2,–
Nc1ncnc2c1ncn2[C@@H]1O[C@H](COP(=O)(O)OP(=O)(O)O)[C@@H](O)[C@H]1O [Adenosine 5'-diphosphate],9,–
O=c1cc(-c2ccccc2)oc2cc(O)cc(O)c12 [Chrysin],0,–
O=C1C[C@@H](c2ccccc2)Oc2cc(O[C@@H]3O[C@H](CO)[C@@H](O)[C@H](O)[C@H]3O)cc(O)c21 [Pinocembrin-7-O-β-D-glucopyranoside],19.6,–
CO[C@@H]1C=C2[C@@H]3CC(C)(C)CC[C@]3(CO)[C@H](O)C[C@@]2(C)[C@]2(C)CC[C@H]3[C@](C)(CO)[C@@H](O[C@@H]4O[C@H](C)[C@H](O)[C@H](O[C@@H]5O[C@H](CO)[C@@H](O)[C@H](O)[C@H]5O)[C@H]4O)CC[C@]3(C)[C@@H]12 [Saikosaponin B4],21.6,–
COc1cc2c(c(OC)c1OC)-c1c(cc(OC)c(OC)c1OC)C[C@H](C)[C@H](C)C2 [Schisandrin A],35.1,–
C=C1C(=O)[C@@]23[C@H](O)C[C@@H]4C(C)(C)C(=O)CC[C@@]4(C)[C@@H]2CC[C@@H]1[C@H]3O [Glaucocalyxin A],16.7,–
Cc1c(O)cc2c(c1O)C(=O)c1ccccc1C2=O [Rubiadin],38.1,–
COc1cc2oc(=O)cc(-c3ccccc3)c2cc1O [Dalbergin],14.9,–
N[C@@H](CS(=O)O)C(=O)O [L-Cysteinesulfinic acid],11,–
CC(C)[C@H](C)CC[C@@H](C)[C@H]1CC[C@H]2[C@@H]3CC=C4C[C@@H](O)CC[C@]4(C)[C@H]3CC[C@]12C [Campesterol],11.1,–

# A portion from further up:
Structure (SMILES),229E Inhibition rate [%],"229E Inhibition rate (229E Inhibition rate, 24 h) [%]"
CO[C@@H]1C=C2[C@@H]3CC(C)(C)CC[C@]3(CO)[C@H](O)C[C@@]2(C)[C@]2(C)CC[C@H]3[C@](C)(CO)[C@@H](O[C@@H]4O[C@H](C)[C@H](O)[C@H](O[C@@H]5O[C@H](CO)[C@@H](O)[C@H](O)[C@H]5O)[C@H]4O)CC[C@]3(C)[C@@H]12 [Saikosaponin B4],21.6,–
COc1cc2c(c(OC)c1OC)-c1c(cc(OC)c(OC)c1OC)C[C@H](C)[C@H](C)C2 [Schisandrin A],35.1,–
C=C1C(=O)[C@@]23[C@H](O)C[C@@H]4C(C)(C)C(=O)CC[C@@]4(C)[C@@H]2CC[C@@H]1[C@H]3O [Glaucocalyxin A],16.7,–

# Additional compounds.

Structure (SMILES),229E Inhibition rate [%],"229E Inhibition rate (229E Inhibition rate, 24 h) [%]"
CCCCCC/C(C=O)=C\c1ccccc1 [α-Hexylcinnamaldehyde],24.3,–
CN(C)C(N)=NCCC[C@H](N)C(=O)O [Asymmetric dimethylarginine],14.5,–
Nc1nc2c(ncn2[C@H]2C[C@H](O)[C@@H](CO)O2)c(=O)[nH]1 [2'-Deoxyguanosine monohydrate],–,1.5
CCCCCCCCCCCCCC(=O)O[C@H]1CC[C@@]2(C)C(=CC[C@H]3[C@@H]4CC[C@H]([C@H](C)CCCC(C)C)[C@@]4(C)CC[C@@H]32)C1 [Cholesterol myristate],4.7,–
CC(=O)OCCC(C)CCC=C(C)C (stereo not shown) [Citronellyl acetate],16.2,–
COC(=O)Cc1ccc(O)cc1 [Methyl 4-hydroxyphenylacetate],17.1,–
c1ccc(CNc2ncnc3[nH]cnc23)cc1 [6-Benzylaminopurine],5.7,–
Cc1cc(C(=O)O)ccc1O [4-Hydroxy-3-methylbenzoic acid],61.9,–
CC(=O)O[C@H]1C(=O)[C@@]2(C)[C@H]([C@H](OC(=O)c3ccccc3)[C@]3(O)C[C@H](OC(=O)[C@H](O)[C@@H](NC(=O)c4ccccc4)c4ccccc4)C(C)=C1C3(C)C)[C@]1(OC(C)=O)CO[C@@H]1C[C@@H]2O [7-epi-Taxol],–,29.6
C[C@H](CCC(=O)O)[C@H]1CC[C@H]2[C@@H]3[C@@H](O)C[C@@H]4C[C@H](O)CC[C@]4(C)[C@H]3CC[C@]12C [Ursodeoxycholic acid],27.1,–
O=C(O)CCCCc1ccccc1 [5-Phenylvaleric acid],38,–
COc1cc([C@@H]2c3cc4c(cc3C[C@H]3COC(=O)[C@@H]32)OCO4)cc(OC)c1OC [Deoxypodophyllotoxin],16.7,–
Cc1cn([C@@H]2O[C@H](CO)[C@@H](O)[C@H]2O)c(=O)nc1N [5-Methylcytidine],18.9,–
COc1cc([C@@H]2OC[C@@H]3[C@H]2CO[C@H]3c2cc(OC)c(O[C@@H]3O[C@H](CO)[C@@H](O)[C@H](O)[C@H]3O)c(OC)c2)cc(OC)c1O [Acanthoside B],15.9,–
COc1cc(/C=C/C(=O)OC[C@H]2O[C@H](O[C@]3(CO)O[C@H](CO)[C@@H](O)[C@@H]3OC(=O)/C=C/c3cc(OC)c(OC)c(OC)c3)[C@H](O)[C@@H](O)[C@@H]2O)cc(OC)c1O [Tenuifoliside C],19.9,–
CCCCCCCC/C=C\CCCCCCCC(=O)O [Oleic acid],–,9.2
COc1cc([C@@H]2[C@H]3CO[C@@]4(O)C(=O)[C@@H]2C=C([C@H]2Oc5cc(O)cc(O)c5C(=O)[C@@H]2O)[C@@H]34)ccc1O [Silydianin],51.4,–
CCOC(=O)/C=C/c1ccc(O)c(O)c1 [Ethyl Caffeate],14.8,–
CC1=C(C)C(=O)O[C@@H]([C@](C)(O)[C@H]2CC[C@H]3[C@@H]4[C@@H]5O[C@@H]5[C@@]5(O)CC=CC(=O)[C@]5(C)[C@H]4CC[C@]23C)C1 [Withanolide A],18.4,–
Cc1ccc2oc(-c3ccccc3)cc(=O)c2c1 [6-Methylflavone],0,–
O=c1cc(CCc2ccccc2)oc2c1[C@H](O)[C@@H](O)[C@@H](O)[C@@H]2O [Agarotetrol],42.2,–
CC(C)=CCC[C@](C)(O)[C@H]1CC[C@]2(C)[C@@H]1[C@H](O)C[C@@H]1[C@@]3(C)CC[C@H](O)C(C)(C)[C@@H]3[C@@H](O[C@@H]3O[C@H](CO)[C@@H](O)[C@H](O)[C@H]3O[C@@H]3OC[C@@H](O)[C@H](O)[C@H]3O)C[C@]12C [Notoginsenoside R2],9.5,–
COC(=O)CCc1ccccc1 [Methyl 3-phenylpropanoate],23.3,–
O=C(O)CCc1cccc(O)c1 [3-(3-Hydroxyphenyl)propionic acid],18.6,–
CC1(C)CCC[C@]2(C)[C@H]3CCO[C@]3(C)CC[C@@H]12 [Ambroxide],53.4,–
C[C@@H]1C(=O)O[C@H]2[C@H](O)[C@@]34[C@H]5C[C@@H](C(C)(C)C)[C@]36[C@@H](OC(=O)[C@@H]6O)O[C@@]4(C(=O)O5)[C@@]12O [Ginkgolide B],25.6,–
